Laboratory results taken from patent US20250360071A1, “AGENT FOR INDUCING CILIUM” (MED R&D Co. Ltd, priority 2022, published 2025).
Some of these results come from one statement about several compounds together.

Tested on: dorsal skin
Assay: Transcriptome analysis and extended network analysis of dorsal skin, Experimental Examples 6 and 8
Type: in vivo, mouse
Settings: extended network analysis of the group's dataset
Description: A mouse in each group of Experimental Example 5 and a mouse in the group which had been subjected to the same treatment as in Experimental Example 5 using 1% tieghemelin (n=6) were euthanized on the 20th day, and the dorsal skin was collected and subjected to transcriptome analysis.
Extended network analysis was performed based on the results of the transcriptome analysis in Experimental Example 6. FIGS. 20 to 22 are views showing the results of the extended network analysis. FIG. 20 is an analysis result obtained from a dataset of the minoxidil treatment group, FIG. 21 is an analysis result obtained from a dataset of the maslinic acid treatment group, and FIG. 22 is an analysis result obtained from a dataset of the tieghemelin treatment group. In FIGS. 20 to 22, a white circle indicates a gene with increased expression, and a black circle indicates a gene with decreased expression. In addition, the size of the circle indicates the magnitude of a change in expression level.

## CC1(C)CC[C@]2(C(=O)O)CC[C@]3(C)C(=CC[C@@H]4[C@@]5(C)C[C@@H](O)[C@H](O)C(C)(C)[C@@H]5CC[C@]43C)[C@@H]2C1 [maslinic acid]
  number of species of the expanded protein-protein interaction (PPI) networks: ≥ 400
